# Measured values as given in PubChem BioAssay AID588590 (National Center for Advancing Translational Sciences (NCATS), 2011).
# Protein sequences, listed by entry. Tags and fused reporters are not part of them. Lines headed by an entry give the natural chain unless they say otherwise; changes in a name come on top.
# UniProt Q9UNA4: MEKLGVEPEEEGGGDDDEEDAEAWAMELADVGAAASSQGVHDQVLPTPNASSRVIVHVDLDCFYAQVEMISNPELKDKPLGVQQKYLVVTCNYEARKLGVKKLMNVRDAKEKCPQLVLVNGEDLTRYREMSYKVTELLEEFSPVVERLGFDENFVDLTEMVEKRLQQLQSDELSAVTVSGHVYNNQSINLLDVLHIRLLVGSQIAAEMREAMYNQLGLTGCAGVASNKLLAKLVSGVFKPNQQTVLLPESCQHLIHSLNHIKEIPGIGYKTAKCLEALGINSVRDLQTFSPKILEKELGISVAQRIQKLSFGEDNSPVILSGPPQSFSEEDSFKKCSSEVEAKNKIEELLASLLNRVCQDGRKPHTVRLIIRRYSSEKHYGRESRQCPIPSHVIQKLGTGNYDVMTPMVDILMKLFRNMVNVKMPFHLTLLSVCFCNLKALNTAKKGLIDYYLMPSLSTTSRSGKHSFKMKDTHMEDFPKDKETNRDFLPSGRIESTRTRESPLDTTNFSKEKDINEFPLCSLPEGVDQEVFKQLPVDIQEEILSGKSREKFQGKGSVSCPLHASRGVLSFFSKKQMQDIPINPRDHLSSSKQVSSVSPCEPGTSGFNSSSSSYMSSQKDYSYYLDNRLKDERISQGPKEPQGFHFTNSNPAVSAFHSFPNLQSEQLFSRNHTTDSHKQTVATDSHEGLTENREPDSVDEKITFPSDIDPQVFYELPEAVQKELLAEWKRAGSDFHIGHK
# About 4,000 (1%) of roughly 390,000 compounds were called active. The inconclusive results got no clear call from the source; some entries with a clear call stand among them for comparison. Calls come from the whole dose curve; as a rule, active = well fitted inhibition curve with a large enough effect; inconclusive = small, poorly fitted or top-dose-only effect, or another doubt; inactive = no such curve, though single readings can be large or run the other way. A potency beside an inconclusive call is a rough fit, not a confirmed value.
# Target: DNA polymerase iota (Homo sapiens) (UniProt Q9UNA4)
# Test: qHTS for Inhibitors of Polymerase Iota
# Conditions: Pol iota fluorescent replication assay, 10 min; series mostly up to 115 µM; activity, negative = inhibition: at the top concentration
# Summary of the method: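 Fluorescent replication assay read twice, at 0 min and 10 min after adding 50 nM (final) substrate. Enzyme (10 nM) and compounds were first incubated 15 min at room temperature; enzyme-free buffer wells were negative controls.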
# Potency is the fitted concentration of half-maximal effect.
Compound,Potency,"activity, negative = inhibition"
Cn1c(SCC(=O)N2CCc3ccccc32)nc2cccnc21,"inconclusive: 14.1 µM [inhibitor, single point]",–
O=Cc1cn(CCC(=O)O)nc1-c1cc2ccccc2o1,"inconclusive: 15.8 µM [inhibitor, partial curve, poor fit]",–
Cc1sc2ncnc(NCc3ccco3)c2c1C,"inconclusive: 56.2 µM [inhibitor, partial curve, poor fit]",–
Cc1ccccc1NC(=O)c1cc(-c2ccco2)nc2ccccc12,active: 39.8 µM,–
COc1ccc(OC)c(CNC(=O)Cn2nc(C)c3c(C)n(-c4ccc(C)cc4)nc3c2=O)c1,"inconclusive: 39.8 µM [inhibitor, single point]",–
Clc1cccc(-c2nn3c(Cn4cnc5ccccc54)nnc3s2)c1,–,inactive: -18.9% [at 58.9 µM]
C=CCOc1ccc(/C=C/C(=O)OCC(=O)NNC(=O)c2ccccc2F)cc1,"inconclusive: 79.4 µM [inhibitor, partial curve, poor fit]",–
Cc1ccccc1CSCC(=O)NCc1ccco1,"inconclusive: 79.4 µM [inhibitor, partial curve]",–
COC(=O)[C@]1(Cc2ccccc2)N[C@H](c2ccc(-c3cccc(Cl)c3)c(OC)c2)[C@@H]2C(=O)N(C)C(=O)[C@@H]21,"inconclusive: 22.4 µM [inhibitor, full curve]",–
N#C/C(=C/c1ccc(N2CCOCC2)o1)c1ccc(Cl)cc1,"inconclusive: 12.6 µM [inhibitor, full curve, poor fit]",–
Cc1nc(-c2ccc(Cl)cc2)sc1C1(C)CC(c2ccccc2Br)=NO1 (stereo not drawn),"inconclusive: 35.5 µM [inhibitor, single point]",–
Ic1ccc(Nc2nc(NCCN3CCOCC3)nc(N3CCOCC3)n2)cc1,–,inactive: 3.25%
CCOC(=O)C1Nc2ccc(C)cc2C2C=CCC12 (stereo not drawn),"inconclusive: 28.2 µM [inhibitor, full curve, poor fit]",–
CCOc1ccccc1C(=O)NC1CC2CCCC(C1)N2Cc1nnnn1Cc1ccco1 (stereo not drawn),"inconclusive: 39.8 µM [inhibitor, single point]",–
O=C1OC(/C(=C\Nc2ccc(F)cc2F)[N+](=O)[O-])c2ccccc21 (stereo not drawn),–,inactive: 50.1%
Cc1ccc(NC(=O)CSc2nc(-c3ccccc3Cl)nc3cc(=O)[nH]n23)c(C)c1,"inconclusive: 89.1 µM [inhibitor, single point]",–
CC1CCN(c2c([N+](=O)[O-])c(=O)n(-c3ccccc3)c3ccccc23)CC1,–,inactive: 4.5%
Cc1ccc(S(=O)(=O)/N=C(\N)Nc2nc(C)c3ccc(C)cc3n2)cc1,"inconclusive: 79.4 µM [inhibitor, partial curve, poor fit]",–

# Pulled by structure from above, 2 records:
Compound,Potency,"activity, negative = inhibition"
N#C/C(=C/c1ccc(N2CCOCC2)o1)c1ccc(Cl)cc1,"inconclusive: 12.6 µM [inhibitor, full curve, poor fit]",–
COc1ccc(OC)c(CNC(=O)Cn2nc(C)c3c(C)n(-c4ccc(C)cc4)nc3c2=O)c1,"inconclusive: 39.8 µM [inhibitor, single point]",–
